Laboratory results from PubChem BioAssay AID493014 (National Center for Advancing Translational Sciences (NCATS), 2011).
The other results are listed elsewhere or left out. These are further read-outs of the screen, such as a control signal, another cell line or another target. No call is given for them. The list favours compounds with an active or inconclusive main result. The note in brackets gives the kind of curve behind each potency; many fits are weak.

Experiment: qHTS Assay to Find Inhibitors of Chronic Active B-Cell Receptor Signaling
Settings: ABC-DLBCL IkBa-CBG/CBR reporter, luminescence ratio (green luciferase fused to IkBa over red control in TMD8 lymphoma cells), 4 h
Outline: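 TMD8 ABC-DLBCL cells carrying doxycycline-inducible green luciferase fused to IkappaBalpha plus unfused red luciferase were exposed to compounds (up to 46 uM) for 4 hrs at 37C. Activity came from the overlap-corrected green/red luminescence ratio.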

[1] = measured here: CBR red luminescence, cell number
[2] = measured here: IkBa-CBG green luminescence

| SMILES | AC50 [1] | AC50 [2] |
| --- | --- | --- |
| C[C@H](NC(=O)C(c1ccccc1)c1ccccc1)c1ccccc1 | 20 µM [falling, single point] |  |
| COc1ccc(CNC(=O)CCc2c(C)nc3cc(-c4ccccc4OC)nn3c2C)cc1 | 7.94 µM [falling, partial curve, poor fit] |  |
| Cc1cccc(-c2noc(CN(C(=O)c3ccc4c(c3)OCO4)C(C)C)n2)c1 | 0.103 µM [rising, full curve, poor fit] |  |
| CCOC(=O)CNC(=O)c1cn(C)c(=O)c2cc(OC)c(OC)cc12 | 35.5 µM [falling, single point] |  |
| COc1ccc(-c2ccc(=O)n(CC(=O)Nc3ccc(C)cc3C)n2)cc1 | 35.5 µM [rising, single point] |  |
| Cn1c(C2=C(O)CN(Cc3ccccc3)C2=N)nc2ccccc21 | 6.31 µM [rising, single point] | 11.2 µM [falling, partial curve, poor fit] |
| Cc1ccc(-c2ccc(CCC(=O)O)n2-c2cccc(O)c2)cc1 | 11.6 µM [rising, partial curve] |  |
| COC(=O)COc1cccc2c(=O)n(CC(=O)NCc3ccccc3)ccc12 | 12.6 µM [rising, partial curve] | 10 µM [falling, partial curve] |
| CN1CCN(CCCNC(=O)c2ccc(/C=C3\Oc4ccccc4N(Cc4ccccc4F)C3=O)cc2)CC1 | 5.62 µM [rising, single point] |  |
| O=C(CNC(=O)c1cn2ccccc2n1)Nc1ccc(F)c(F)c1 | 18.4 µM [falling, single point] |  |
| O=C(O)C1CCN(C(=O)c2ccc(Cl)cc2)CC1 | 0.58 µM [falling, partial curve, poor fit] |  |
| COc1cc(/C=N/n2nnnc2N)ccc1OC(C)C | 12.6 µM [rising, partial curve] |  |
| S=C1Cc2ccccc2C(c2ccc(Cl)cc2)N1 (stereo unspecified) | 6.31 µM [rising, full curve, poor fit] |  |
| O=C(NNC(=O)c1cccs1)c1ccc([N+](=O)[O-])cc1 | 0.562 µM [falling, full curve] |  |
| CCOc1ccc(N/C=C/C(=O)c2cc(OC)c(OC)c(OC)c2)cc1 | 14.1 µM [rising, partial curve, poor fit] |  |
| Cn1c(=O)[nH]c(=O)c2c1nc(N/N=C/c1cccnc1)n2Cc1ccc(Cl)cc1 | 11.2 µM [rising, partial curve, poor fit] |  |
| COc1ccc(CC(=O)OCC(=O)NCc2ccc(Cl)cc2)cc1 | 0.447 µM [rising, full curve, poor fit] |  |
| S=c1cnc2ccccc2[nH]1 | 12.6 µM [rising, partial curve, poor fit] |  |
| CCc1ccc(/C=C2\SC(=S)N(CCCC(=O)Nc3nccs3)C2=O)cc1 | 11.6 µM [falling, partial curve, poor fit] |  |
| CCC(C)c1ccc(-c2cc(C(=O)OCC(=O)Nc3cc(C)on3)c3ccccc3n2)cc1 (stereo unspecified) | 2.91 µM [rising, partial curve] |  |
| O=C(O)c1ccccc1-c1ccccc1C(=O)NNc1ccccc1 | 32.6 µM [rising, single point] |  |

Complete entries, looked up by structure:
`COC(=O)COc1cccc2c(=O)n(CC(=O)NCc3ccccc3)ccc12` is entered as AC50 [1]: 12.6 µM [rising, partial curve]; AC50 [2]: 10 µM [falling, partial curve]
`CCOC(=O)CNC(=O)c1cn(C)c(=O)c2cc(OC)c(OC)cc12` is entered as AC50 [1]: 35.5 µM [falling, single point]
`Cc1ccc(-c2ccc(CCC(=O)O)n2-c2cccc(O)c2)cc1` is entered as AC50 [1]: 11.6 µM [rising, partial curve]

Continuation.

| SMILES | AC50 [1] | AC50 [2] |
| --- | --- | --- |
| CN1C(=O)c2oc3ccccc3c(=O)c2C1c1ccncc1 (stereo unspecified) | 11.2 µM [falling, single point] |  |
| Cc1cccc(Sc2c([N+](=O)[O-])ncn2C)c1 | 14.1 µM [falling, single point] |  |
| Cc1nc(N2CCOCC2)sc1C(=O)NN | 7.08 µM [falling, partial curve] |  |
| O=C(C1CCCN(Cc2ccncc2)C1)N1CCc2ccccc2C1 (stereo unspecified) | 3.55 µM [rising, partial curve] |  |
| Cc1cccc(N2C(=O)C3C(c4ccccc4)OC4(C(=O)c5ccccc5C4=O)C3C2=O)c1 (stereo unspecified) | 35.5 µM [falling, partial curve, poor fit] |  |
| COc1ccc(CNC(=O)C2CCCN(c3nccc(C)n3)C2)cc1 (stereo unspecified) | 23.1 µM [rising, single point] |  |
| O=C(CNC(=O)c1ccccc1)OC(C(=O)Nc1cc(C(F)(F)F)ccc1Cl)c1ccccc1 (stereo unspecified) | 9.2 µM [rising, partial curve, poor fit] |  |
| CCCCNc1c(-c2cccc(-c3cc(C(C)=O)cs3)c2)nc2ccc(C)cn12 | 11.6 µM [falling, partial curve, poor fit] |  |
| COc1ccc2cc(C(=O)NCc3ccco3)c(=O)oc2c1 | 7.31 µM [falling, partial curve] |  |
| COc1ccc(-c2nc3ccccc3nc2-c2ccc(OC)cc2)cc1 | 11.2 µM [rising, partial curve, poor fit] |  |
| Cn1c(=O)c2c(nc(SCC(=O)NCC3CCCO3)n2Cc2ccc(F)cc2)n(C)c1=O (stereo unspecified) | 31.6 µM [rising, single point] |  |
| CCOC(=O)c1sc(NC(=O)c2cccc(S(=O)(=O)N(CC)CC)c2)cc1C | 0.116 µM [falling, full curve, poor fit] |  |
| O=C(O)c1ccc(-n2c(-c3ccc(Br)cc3)n[nH]c2=S)cc1 | 9.2 µM [falling, partial curve, poor fit] |  |
| CCc1nnc(NC(=O)CSc2nnc3c(n2)[nH]c2ccccc23)s1 | 1.58 µM [rising, full curve, poor fit] |  |
| Cc1ccc2nc(-c3ccc(NC(=O)CSc4nc(N)cc(=O)[nH]4)cc3)sc2c1 | 8.91 µM [rising, partial curve, poor fit] |  |
| O=C(c1ccc(-c2cccc(C(F)(F)F)c2)o1)N1CCCC(C(F)(F)F)C1 (stereo unspecified) | 2.31 µM [rising, partial curve, poor fit] |  |
| COc1cc(OC)cc(C(=O)Nc2nc3ccccc3[nH]2)c1 | 16.4 µM [falling, partial curve, poor fit] |  |
| COc1ccc(NC(=O)c2ccc(NS(=O)(=O)c3cccc4cccnc34)cc2)cc1 | 35.5 µM [falling, single point] |  |
| COc1cc(NC(=O)COC(=O)[C@@H]2CCCN2S(=O)(=O)c2ccc(Cl)cc2)cc(OC)c1OC | 0.355 µM [rising, full curve, poor fit] |  |
| C=CCNC(=O)/C(C#N)=C/c1c(N2CC(C)OC(C)C2)nc2ccccn2c1=O (stereo unspecified) | 0.82 µM [rising, full curve, poor fit] |  |
| COc1cccc(OCc2cc(C(=O)N3CCC(C(O)C(C)C)CC3)no2)c1 (stereo unspecified) | 17.8 µM [falling, partial curve, poor fit] |  |

| SMILES | AC50 [1] | AC50 [2] |
| --- | --- | --- |
| COc1ccc(/C=C/C(=O)c2cc(F)ccc2OC(=O)c2ccccc2OC)cc1OC | 11.2 µM [rising, partial curve] | 2.82 µM [falling, full curve] |
| Cc1ccc2c(CN(C)Cc3cccc(F)c3)cc(=O)oc2c1 | 6.31 µM [rising, partial curve, poor fit] |  |
| Cc1cccc(NC(=S)Nc2ccc(Cl)c(Cl)c2)c1 | 10 µM [rising, partial curve, poor fit] |  |
| COc1ccc(CN2C(=O)C(C)Oc3ccccc32)cc1 (stereo unspecified) | 35.5 µM [rising, single point] |  |
| CCCCc1cc(=O)oc2cc(C)c(CN3CCCC3)c(O)c12 | 5.8 µM [falling, partial curve, poor fit] |  |
| CN(CC(=O)Nc1ccc(F)cc1)CC(=O)NC1CCCCC1 | 7.31 µM [falling, partial curve, poor fit] |  |
| Cc1ccc(C(=O)Nc2cccc(C(=O)N/N=C/c3ccccc3F)c2)cc1 | 35.5 µM [falling, single point] |  |
| Cc1cc(=O)[nH]c(SCC(=O)NCCc2ccccc2)n1 | 6.51 µM [rising, partial curve, poor fit] |  |
| CC(C)NC(=O)c1ccc(-c2cccc(C(F)(F)F)c2)o1 | 15.8 µM [rising, partial curve, poor fit] |  |
| CCc1cccc(C)c1NC(=O)CN(C)Cc1ccc(Br)cc1 | 17.8 µM [falling, single point] |  |
| Cc1nc2ccc([N+](=O)[O-])cc2c(=O)n1Cc1cccc(Br)c1 | 20 µM [falling, single point] |  |
| C/C(=N\Nc1cccc(C(=O)O)c1)c1ccc2c(c1)Nc1ccccc1S2 | 1.26 µM [rising, full curve, poor fit] | 1.12 µM [rising, full curve, poor fit] |
| Cc1ccc(S(=O)(=O)N2CCCCC2)cc1NC(=O)c1cc(F)c(F)c(F)c1F | 18.4 µM [falling, partial curve, poor fit] |  |
| O=C(Nc1nc2ccc(F)cc2s1)C1=COCCO1 | 3.66 µM [falling, partial curve, poor fit] |  |
| CN(C(=O)COC(=O)c1cc2ccccc2oc1=O)C1CCCCC1 | 20.6 µM [rising, partial curve, poor fit] |  |
| CS(=O)(=O)N1CCN(c2ccccc2NC(=O)c2cccnc2)CC1 | 3.26 µM [falling, partial curve, poor fit] |  |
| COc1ccccc1NC(=O)Nc1nc(CC(=O)NCc2ccc(F)cc2)cs1 | 32.6 µM [falling, single point] |  |
| CNC(=O)c1cc(Nc2nnc(-c3ccc(O)cc3)c3ccccc23)ccc1OC | 25.1 µM [falling, single point] |  |
| O=C(NNC(=S)NC1CCCCC1)c1ccc2c(c1)OCO2 | 1.3 µM [falling, partial curve] |  |
| Cc1ccc(NS(=O)(=O)c2cc(NC(=O)c3cc(=O)[nH]c(=O)[nH]3)ccc2Cl)c(C)c1 | 6.31 µM [rising, single point] |  |
